{"source": "PubChem BioAssay AID1259254 (NCATS, 2017)", "assay": "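Genome-wide screen for genes that prevent DNA re-replication in cancer cells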 (primary screen)", "cells": "human HCT116 colorectal cancer cells", "knock-down reagent": "single siRNA against human genes", "duration": "3 days", "measurement": "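Imaged Hoechst DNA stain sorts each cell into a cycle phase by DNA amount; per plate, G2 fraction set to 0% for non-targeting and 100% for GMNN siRNA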", "direction": "G2 robust z-score and G2 cells, % of GMNN control: higher = more G2 cells, more excess DNA replication", "hit rule": "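An siRNA counts as active if its G2 robust z-score lies at least 5 MADs above the screen median; here such calls match roughly 38% of GMNN control or more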", "note": "The whole screen tested about 59,000 reagents; this is a random part of them. About 1,550 of them (2.6%) were called active. 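G2 share is only a proxy for re-replication; each gene was hit by three separate siRNAs, and active genes were retested.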 The numbers tell different reagents against one gene apart. Not all columns of the deposit are shown. No sequences are given here. The record does not give: the amount of reagent."}
{"gene": "MTMR9", "siRNA no.": 1, "G2 robust z-score": -0.211, "G2 cells, % of GMNN control": 1.48, "activity call": "inactive"}
{"gene": "MTMR9", "siRNA no.": 2, "G2 robust z-score": 0.136, "G2 cells, % of GMNN control": 3.92, "activity call": "inactive"}
{"gene": "MTMR9", "siRNA no.": 3, "G2 robust z-score": 1.18, "G2 cells, % of GMNN control": 11.3, "activity call": "inactive"}
{"gene": "TMPRSS7", "siRNA no.": 1, "G2 robust z-score": -0.903, "G2 cells, % of GMNN control": -3.39, "activity call": "inactive"}
{"gene": "TMPRSS7", "siRNA no.": 2, "G2 robust z-score": -0.0405, "G2 cells, % of GMNN control": 2.68, "activity call": "inactive"}
{"gene": "TMPRSS7", "siRNA no.": 3, "G2 robust z-score": 1.19, "G2 cells, % of GMNN control": 11.3, "activity call": "inactive"}
{"gene": "CREB5", "siRNA no.": 1, "G2 robust z-score": -0.604, "G2 cells, % of GMNN control": -1.28, "activity call": "inactive"}
{"gene": "CREB5", "siRNA no.": 2, "G2 robust z-score": 0.885, "G2 cells, % of GMNN control": 9.2, "activity call": "inactive"}
{"gene": "CREB5", "siRNA no.": 3, "G2 robust z-score": 1.69, "G2 cells, % of GMNN control": 14.8, "activity call": "inactive"}
{"gene": "CREB5", "siRNA no.": 4, "G2 robust z-score": 0.486, "G2 cells, % of GMNN control": 6.39, "activity call": "inactive"}
{"gene": "CREB5", "siRNA no.": 5, "G2 robust z-score": 0.208, "G2 cells, % of GMNN control": 4.43, "activity call": "inactive"}
{"gene": "CREB5", "siRNA no.": 6, "G2 robust z-score": 0.176, "G2 cells, % of GMNN control": 4.21, "activity call": "inactive"}

Targets above whose target name starts with C or c:
{"gene": "CREB5", "siRNA no.": 1, "G2 robust z-score": -0.604, "G2 cells, % of GMNN control": -1.28, "activity call": "inactive"}
{"gene": "CREB5", "siRNA no.": 2, "G2 robust z-score": 0.885, "G2 cells, % of GMNN control": 9.2, "activity call": "inactive"}
{"gene": "CREB5", "siRNA no.": 3, "G2 robust z-score": 1.69, "G2 cells, % of GMNN control": 14.8, "activity call": "inactive"}
{"gene": "CREB5", "siRNA no.": 4, "G2 robust z-score": 0.486, "G2 cells, % of GMNN control": 6.39, "activity call": "inactive"}
{"gene": "CREB5", "siRNA no.": 5, "G2 robust z-score": 0.208, "G2 cells, % of GMNN control": 4.43, "activity call": "inactive"}
{"gene": "CREB5", "siRNA no.": 6, "G2 robust z-score": 0.176, "G2 cells, % of GMNN control": 4.21, "activity call": "inactive"}

Continued.
{"gene": "ICE2P2", "siRNA no.": 1, "G2 robust z-score": 0.144, "G2 cells, % of GMNN control": 3.98, "activity call": "inactive"}
{"gene": "ICE2P2", "siRNA no.": 2, "G2 robust z-score": -0.616, "G2 cells, % of GMNN control": -1.36, "activity call": "inactive"}
{"gene": "ICE2P2", "siRNA no.": 3, "G2 robust z-score": -0.809, "G2 cells, % of GMNN control": -2.73, "activity call": "inactive"}
{"gene": "KLK13", "siRNA no.": 1, "G2 robust z-score": -0.476, "G2 cells, % of GMNN control": -0.38, "activity call": "inactive"}
{"gene": "KLK13", "siRNA no.": 2, "G2 robust z-score": -0.338, "G2 cells, % of GMNN control": 0.591, "activity call": "inactive"}
{"gene": "KLK13", "siRNA no.": 3, "G2 robust z-score": 0.408, "G2 cells, % of GMNN control": 5.84, "activity call": "inactive"}
